In PubChem BioAssay (NCATS):
Inconclusive results, whose numbers are uncertain, are shown with a selection of clear calls. Where the call is inconclusive, the potency comes from a doubtful curve fit. Activity calls are given as the source filed them. Calls come from the whole dose curve; as a rule, active = well fitted inhibition curve with a large enough effect; inconclusive = small, poorly fitted or top-dose-only effect; inactive = no such curve, though single readings can be large or run the other way.

The chains behind the UniProt entries cited, without tags or fusion partners.
UniProt P07947, whole entry, looked up: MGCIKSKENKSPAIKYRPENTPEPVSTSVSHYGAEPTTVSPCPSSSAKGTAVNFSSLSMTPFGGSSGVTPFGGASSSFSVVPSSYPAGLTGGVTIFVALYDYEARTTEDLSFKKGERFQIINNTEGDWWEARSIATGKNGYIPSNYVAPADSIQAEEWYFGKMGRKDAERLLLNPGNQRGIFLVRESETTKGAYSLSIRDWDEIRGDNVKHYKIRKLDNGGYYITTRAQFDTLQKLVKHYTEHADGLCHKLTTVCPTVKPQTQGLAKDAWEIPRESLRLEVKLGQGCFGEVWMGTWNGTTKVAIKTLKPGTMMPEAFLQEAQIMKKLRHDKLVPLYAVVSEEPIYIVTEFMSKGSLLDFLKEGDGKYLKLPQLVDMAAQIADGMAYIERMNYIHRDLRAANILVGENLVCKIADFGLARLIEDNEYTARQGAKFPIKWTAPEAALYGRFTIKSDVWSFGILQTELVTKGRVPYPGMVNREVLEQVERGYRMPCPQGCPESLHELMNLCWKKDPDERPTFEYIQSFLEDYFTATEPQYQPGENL

What follows are compounds tested against Tyrosine-protein kinase Yes (Homo sapiens) (UniProt P07947) (assay: qHTS for small molecule inhibitors of Yes1 kinase: Primary Screen (AID 686947; note: nearly all actives have a fitted effect of over 60% in size)). Conditions: Yes1 kinase biochemical qHTS inhibition; series mostly up to 76.9 µM.
Outline: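 In this qHTS format, inhibition is expressed relative to DMSO controls with enzyme (maximum) and without enzyme (minimum). The 60 min room-temperature reaction uses 0.1 mM ATP, with ADP detected by luminescence.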
Potency is the fitted concentration of half-maximal effect.

Row | SMILES | Potency
1 | COc1ccc2ncn(-c3cc(OC(C)c4ccccc4C(F)(F)F)c(C(N)=O)s3)c2c1 (configuration not stated) | inconclusive: 23.2 µM [inhibitor, partial curve]
2 | O=C1Nc2ccccc2C1=C1CCc2cc(O)ccc21 | active: 9.23 µM
3 | CCS(=O)(=O)c1ccc(OC)c(Nc2ncc(-c3ccccc3Cl)o2)c1 | inconclusive: 58.2 µM [inhibitor, partial curve, poor fit]
4 | COc1ccc(-c2ccc3c(NC(=O)C4CC4)n[nH]c3n2)cc1 | active: 6.54 µM
5 | NS(=O)(=O)c1ccc(N=Nc2c(=O)[nH]c3ccc4[nH]cccc4c23)cc1 | inconclusive: 10.4 µM [inhibitor, partial curve, poor fit]
6 | NC(=O)c1sc(-n2cnc3ccccc32)cc1OCc1ccccc1Br | active: 18.4 µM
7 | COc1cc(N2CCN(C(C)C)CC2)ccc1Nc1nc(Nc2cccc3ncccc23)c2cc[nH]c2n1 | inconclusive: 29.2 µM [inhibitor, partial curve, poor fit]
